Laboratory results from publication PMC2637432.
These are yes or no findings as the source states them, for the method shown. Binding seen in cells or lysates may run through a third protein. Some results given as binding are weak or reduced against the parent protein; the word gives no strength. Sequences can lack the tags named with a protein.

Target: Grb2 adaptor protein (mouse (endogenous in FAK-/- fibroblasts)), Q60631
Assay: co-IP
Conditions: remark: other sources report otherwise

binding: binds
B1: wild-type focal adhesion kinase (FAK), HA-tagged, tyrosine-phosphorylated (active FAK), P34152 1-1052 (protein)
chain: MAAAYLDPNLNHTPSSSTKTHLGTGMERSPGAMERVLKVFHYFESSSEPTTWASIIRHGDATDVRGIIQKIVDSHKVKHVACYGFRLSHLRSEEVHWLHVDMGVSSVREKYELAHPPEEWKYELRIRYLPKGFLNQFTEDKPTLNFFYQQVKSDYMQEIADQVDQEIALKLGCLEIRRSYWEMRGNALEKKSNYEVLEKDVGLKRFFPKSLLDSVKAKTLRKLIQQTFRQFANLNREESILKFFEILSPVYRFDKECFKCALGSSWIISVELAIGPEEGISYLTDKGCNPTHLADFNQVQTIQYSNSEDKDRKGMLQLKIAGAPEPLTVTAPSLTIAENMADLIDGYCRLVNGATQSFIIRPQKEGERALPSIPKLANSEKQGMRTHAVSVSETDDYAEIIDEEDTYTMPSTRDYEIQRERIELGRCIGEGQFGDVHQGVYLSPENPALAVAIKTCKNCTSDSVREKFLQEALTMRQFDHPHIVKLIGVITENPVWIIMELCTLGELRSFLQVRKYSLDLASLILYAYQLSTALAYLESKRFVHRDIAARNVLVSSNDCVKLGDFGLSRYMEDSTYYKASKGKLPIKWMAPESINFRRFTSASDVWMFGVCMWEILMHGVKPFQGVKNNDVIGRIENGERLPMPPNCPPTLYSLMTKCWAYDPSRRPRFTELKAQLSTILEEEKVQQEERMRMESRRQATVSWDSGGSDEAPPKPSRPGYPSPRSSEGFYPSPQHMVQTNHYQVSGYPGSHGIPAMAGSIYQGQASLLDQTELWNHRPQEMSMWQPSVEDSAALDLRGMGQVLPPHLMEERLIRQQQEMEEDQRWLEKEERFLKPDVRLSRGSIDREDGSFQGPTGNQHIYQPVGKPDPAAPPKKPPRPGAPGHLSNLSSISSPADSYNEGVKLQPQEISPPPTANLDRSNDKVYENVTGLVKAVIEMSSKIQPAPPEEYVPMVKEVGLALRTLLATVDETIPALPASTHREIEMAQKLLNSDLGELISKMKLAQQYVMTSLQQEYKKQMLTAAHALAVDAKNLLDVIDQARLKMLGQTRPH
modifications: here or on the partner: phosphotyrosine (detected with anti-phospho-Tyr; site not given)
